According to the supplement of paper PMC10849652:
Some of the results follow.

The chains behind the UniProt entries cited, without tags or fusion partners. Where a name states a change or a piece, a line headed by the entry shows the natural chain unless it says otherwise.
UniProt P62318, whole entry, looked up: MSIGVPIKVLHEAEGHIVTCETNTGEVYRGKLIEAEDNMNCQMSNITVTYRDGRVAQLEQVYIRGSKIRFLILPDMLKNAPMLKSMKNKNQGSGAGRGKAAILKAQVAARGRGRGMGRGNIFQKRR
UniProt P53814: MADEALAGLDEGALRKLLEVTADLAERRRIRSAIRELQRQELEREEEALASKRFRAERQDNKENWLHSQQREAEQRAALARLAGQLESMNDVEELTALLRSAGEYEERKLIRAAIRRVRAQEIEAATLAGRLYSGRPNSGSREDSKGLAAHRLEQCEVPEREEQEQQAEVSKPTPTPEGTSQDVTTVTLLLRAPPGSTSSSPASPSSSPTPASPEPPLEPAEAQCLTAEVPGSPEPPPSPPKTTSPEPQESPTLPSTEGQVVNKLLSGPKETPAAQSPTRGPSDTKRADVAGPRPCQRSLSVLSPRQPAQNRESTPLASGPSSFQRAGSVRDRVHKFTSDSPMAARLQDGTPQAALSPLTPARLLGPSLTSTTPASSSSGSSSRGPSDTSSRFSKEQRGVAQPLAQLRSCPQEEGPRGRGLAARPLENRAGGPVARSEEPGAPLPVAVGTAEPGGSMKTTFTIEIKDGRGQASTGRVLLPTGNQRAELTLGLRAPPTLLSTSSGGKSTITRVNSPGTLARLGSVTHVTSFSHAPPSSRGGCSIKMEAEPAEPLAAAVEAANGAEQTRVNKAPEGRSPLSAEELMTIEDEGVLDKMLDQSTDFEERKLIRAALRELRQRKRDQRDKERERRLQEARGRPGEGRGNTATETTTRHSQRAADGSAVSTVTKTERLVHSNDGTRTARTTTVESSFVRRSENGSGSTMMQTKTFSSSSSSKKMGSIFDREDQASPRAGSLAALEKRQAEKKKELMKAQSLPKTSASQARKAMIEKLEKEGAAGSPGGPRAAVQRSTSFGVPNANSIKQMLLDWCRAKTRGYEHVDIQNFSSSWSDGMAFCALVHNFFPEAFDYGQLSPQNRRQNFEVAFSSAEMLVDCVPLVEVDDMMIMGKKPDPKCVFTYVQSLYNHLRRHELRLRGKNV
UniProt P09234, whole entry, looked up: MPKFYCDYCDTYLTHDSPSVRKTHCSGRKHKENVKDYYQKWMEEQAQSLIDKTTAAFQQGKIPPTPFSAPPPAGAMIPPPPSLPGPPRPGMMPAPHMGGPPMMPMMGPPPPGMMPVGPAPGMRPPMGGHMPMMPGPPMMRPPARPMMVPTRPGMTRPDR
UniProt Q9NRH2: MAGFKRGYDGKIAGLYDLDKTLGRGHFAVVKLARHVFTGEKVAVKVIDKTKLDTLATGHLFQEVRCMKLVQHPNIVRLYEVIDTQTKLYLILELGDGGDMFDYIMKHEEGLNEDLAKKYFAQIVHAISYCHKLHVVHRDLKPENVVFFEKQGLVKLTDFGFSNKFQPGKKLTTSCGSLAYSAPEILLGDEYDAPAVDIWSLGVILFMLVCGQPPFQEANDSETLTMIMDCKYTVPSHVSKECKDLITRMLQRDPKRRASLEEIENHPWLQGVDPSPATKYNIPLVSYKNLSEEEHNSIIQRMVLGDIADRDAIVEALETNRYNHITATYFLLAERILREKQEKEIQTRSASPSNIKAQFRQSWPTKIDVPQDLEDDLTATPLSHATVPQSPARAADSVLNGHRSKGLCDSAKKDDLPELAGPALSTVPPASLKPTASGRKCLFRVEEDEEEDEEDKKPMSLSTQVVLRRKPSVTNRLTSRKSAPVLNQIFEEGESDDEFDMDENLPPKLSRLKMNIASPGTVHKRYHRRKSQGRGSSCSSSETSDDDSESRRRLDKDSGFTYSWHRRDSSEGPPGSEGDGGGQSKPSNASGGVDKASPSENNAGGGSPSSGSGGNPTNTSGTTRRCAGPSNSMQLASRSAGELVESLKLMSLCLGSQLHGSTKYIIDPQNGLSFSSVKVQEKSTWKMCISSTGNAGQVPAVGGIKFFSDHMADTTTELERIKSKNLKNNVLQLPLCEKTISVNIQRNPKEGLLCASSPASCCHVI
UniProt Q92925, whole entry, looked up: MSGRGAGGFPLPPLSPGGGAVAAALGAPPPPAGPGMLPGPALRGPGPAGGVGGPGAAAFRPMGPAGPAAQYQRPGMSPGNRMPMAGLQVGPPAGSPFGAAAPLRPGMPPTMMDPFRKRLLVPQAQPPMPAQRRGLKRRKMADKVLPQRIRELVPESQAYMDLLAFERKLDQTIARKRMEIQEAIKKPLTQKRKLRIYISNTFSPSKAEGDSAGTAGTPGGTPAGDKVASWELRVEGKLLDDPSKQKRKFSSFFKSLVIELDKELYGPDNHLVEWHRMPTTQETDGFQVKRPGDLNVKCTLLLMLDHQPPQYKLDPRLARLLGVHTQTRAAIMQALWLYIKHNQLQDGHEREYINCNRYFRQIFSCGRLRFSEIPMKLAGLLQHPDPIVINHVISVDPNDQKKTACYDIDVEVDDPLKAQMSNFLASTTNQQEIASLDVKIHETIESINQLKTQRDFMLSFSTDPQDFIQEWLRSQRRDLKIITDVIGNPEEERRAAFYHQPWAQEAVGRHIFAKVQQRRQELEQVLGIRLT
UniProt P62304, whole entry, looked up: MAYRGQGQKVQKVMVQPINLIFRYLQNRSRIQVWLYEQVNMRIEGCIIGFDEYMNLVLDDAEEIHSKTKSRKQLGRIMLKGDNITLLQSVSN
UniProt O60749: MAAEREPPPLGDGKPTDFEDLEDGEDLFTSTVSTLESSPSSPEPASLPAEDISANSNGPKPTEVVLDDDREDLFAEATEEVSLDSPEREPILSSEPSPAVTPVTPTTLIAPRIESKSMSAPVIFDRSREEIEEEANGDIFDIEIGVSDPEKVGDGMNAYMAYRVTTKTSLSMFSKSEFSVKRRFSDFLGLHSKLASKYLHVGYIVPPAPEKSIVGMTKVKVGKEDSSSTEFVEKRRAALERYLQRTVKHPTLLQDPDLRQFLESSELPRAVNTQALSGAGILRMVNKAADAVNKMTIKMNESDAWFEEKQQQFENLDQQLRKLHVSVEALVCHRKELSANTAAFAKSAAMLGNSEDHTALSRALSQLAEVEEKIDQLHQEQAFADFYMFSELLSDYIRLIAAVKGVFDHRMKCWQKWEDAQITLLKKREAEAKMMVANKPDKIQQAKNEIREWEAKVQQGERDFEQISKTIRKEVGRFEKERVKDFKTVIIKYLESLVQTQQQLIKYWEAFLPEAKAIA
UniProt O14508, whole entry, looked up: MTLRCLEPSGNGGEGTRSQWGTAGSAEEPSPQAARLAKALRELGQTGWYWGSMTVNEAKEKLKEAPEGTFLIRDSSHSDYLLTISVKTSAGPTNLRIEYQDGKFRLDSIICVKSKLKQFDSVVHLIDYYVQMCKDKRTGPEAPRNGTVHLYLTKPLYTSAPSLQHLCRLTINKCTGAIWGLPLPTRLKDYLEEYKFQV
UniProt P09661: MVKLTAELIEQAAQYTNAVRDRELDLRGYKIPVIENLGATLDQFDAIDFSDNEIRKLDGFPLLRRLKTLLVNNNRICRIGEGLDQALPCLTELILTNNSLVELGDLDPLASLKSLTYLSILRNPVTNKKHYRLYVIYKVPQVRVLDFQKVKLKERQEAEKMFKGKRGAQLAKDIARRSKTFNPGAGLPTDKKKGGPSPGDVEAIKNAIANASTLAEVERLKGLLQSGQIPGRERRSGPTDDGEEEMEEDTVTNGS
UniProt P08579, whole entry, looked up: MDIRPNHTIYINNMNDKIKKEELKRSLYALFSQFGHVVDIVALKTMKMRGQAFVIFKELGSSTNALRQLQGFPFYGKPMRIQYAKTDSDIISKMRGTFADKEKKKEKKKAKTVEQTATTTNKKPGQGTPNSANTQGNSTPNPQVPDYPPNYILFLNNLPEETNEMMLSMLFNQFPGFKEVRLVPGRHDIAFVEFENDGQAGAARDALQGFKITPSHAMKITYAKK
UniProt O95721: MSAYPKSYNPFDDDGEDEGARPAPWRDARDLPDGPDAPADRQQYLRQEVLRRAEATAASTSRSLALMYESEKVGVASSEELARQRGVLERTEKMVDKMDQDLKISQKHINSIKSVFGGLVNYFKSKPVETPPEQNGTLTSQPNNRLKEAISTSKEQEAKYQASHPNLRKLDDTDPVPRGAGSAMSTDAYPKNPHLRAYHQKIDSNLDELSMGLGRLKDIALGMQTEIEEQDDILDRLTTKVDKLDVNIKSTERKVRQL
UniProt Q8ND04: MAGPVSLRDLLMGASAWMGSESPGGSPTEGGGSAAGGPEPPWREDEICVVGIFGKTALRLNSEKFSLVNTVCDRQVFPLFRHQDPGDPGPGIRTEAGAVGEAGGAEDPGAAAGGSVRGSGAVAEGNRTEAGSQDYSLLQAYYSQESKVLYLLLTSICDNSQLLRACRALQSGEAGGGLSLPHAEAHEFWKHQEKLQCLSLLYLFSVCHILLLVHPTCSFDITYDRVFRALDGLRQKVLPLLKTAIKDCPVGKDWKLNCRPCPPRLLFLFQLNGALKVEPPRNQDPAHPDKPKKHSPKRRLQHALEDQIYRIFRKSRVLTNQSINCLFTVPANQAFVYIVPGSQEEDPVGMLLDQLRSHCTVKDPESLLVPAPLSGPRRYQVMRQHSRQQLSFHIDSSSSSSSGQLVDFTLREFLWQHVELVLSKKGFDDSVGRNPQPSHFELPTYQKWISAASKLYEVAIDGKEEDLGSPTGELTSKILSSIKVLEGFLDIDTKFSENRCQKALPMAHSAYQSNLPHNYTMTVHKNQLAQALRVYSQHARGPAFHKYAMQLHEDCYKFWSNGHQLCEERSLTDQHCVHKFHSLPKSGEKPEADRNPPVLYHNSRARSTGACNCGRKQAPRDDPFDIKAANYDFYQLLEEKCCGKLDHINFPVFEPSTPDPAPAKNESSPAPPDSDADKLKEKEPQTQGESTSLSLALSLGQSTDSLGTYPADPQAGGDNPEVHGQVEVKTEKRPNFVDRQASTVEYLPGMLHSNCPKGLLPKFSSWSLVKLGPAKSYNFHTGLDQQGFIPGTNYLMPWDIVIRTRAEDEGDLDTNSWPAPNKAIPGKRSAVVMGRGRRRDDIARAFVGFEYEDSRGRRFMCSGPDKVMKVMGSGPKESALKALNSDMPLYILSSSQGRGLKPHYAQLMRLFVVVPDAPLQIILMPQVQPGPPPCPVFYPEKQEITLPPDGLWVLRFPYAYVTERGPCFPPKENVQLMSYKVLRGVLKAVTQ
UniProt P23497: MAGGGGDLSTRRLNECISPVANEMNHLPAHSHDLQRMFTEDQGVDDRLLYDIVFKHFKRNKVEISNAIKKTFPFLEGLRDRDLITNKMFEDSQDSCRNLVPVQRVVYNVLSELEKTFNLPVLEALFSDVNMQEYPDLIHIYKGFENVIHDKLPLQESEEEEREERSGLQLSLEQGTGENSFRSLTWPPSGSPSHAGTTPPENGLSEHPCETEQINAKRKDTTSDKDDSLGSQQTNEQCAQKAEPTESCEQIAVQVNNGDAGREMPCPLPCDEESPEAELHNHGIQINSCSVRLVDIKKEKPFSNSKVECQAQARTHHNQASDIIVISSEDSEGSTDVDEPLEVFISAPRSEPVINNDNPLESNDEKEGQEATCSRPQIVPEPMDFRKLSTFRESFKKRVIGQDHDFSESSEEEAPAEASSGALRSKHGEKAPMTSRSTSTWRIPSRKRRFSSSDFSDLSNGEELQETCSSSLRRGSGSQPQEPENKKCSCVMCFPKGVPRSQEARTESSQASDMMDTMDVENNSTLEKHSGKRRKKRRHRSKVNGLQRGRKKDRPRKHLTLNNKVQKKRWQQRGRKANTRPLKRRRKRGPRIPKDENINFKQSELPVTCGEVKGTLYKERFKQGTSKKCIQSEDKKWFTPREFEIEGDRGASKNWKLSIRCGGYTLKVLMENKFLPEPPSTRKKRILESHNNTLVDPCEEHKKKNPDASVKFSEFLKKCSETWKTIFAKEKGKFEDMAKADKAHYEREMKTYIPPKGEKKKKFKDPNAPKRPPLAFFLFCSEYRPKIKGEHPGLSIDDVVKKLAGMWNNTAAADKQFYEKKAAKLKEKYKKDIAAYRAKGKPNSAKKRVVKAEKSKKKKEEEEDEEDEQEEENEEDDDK

Experiments:
Assay in all cases: log2 fold change, soluble protein after heating vs DMSO (PISA); higher = thermal stabilisation; K562 lysate, 10 uM; active = over 0.2 and 3.5 SD of the protein, either way, in both replicates (recomputed)
ibrutinib = compound: C=CC(=O)N1CCC[C@@H](n2nc(-c3ccc(Oc4ccccc4)cc3)c3c(N)ncnc32)C1 [ibrutinib]
Method in brief: (§1)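 Soluble protein was defined as the supernatant remaining after 21,000xg for 90 min, following pooling of heated aliquots and adjustment to 0.5% NP-40 at 4°C. Before that, crude K562 extract at 1 mg/mL protein in PBS pH 7.4 with 1 mM MgCl2 was treated with 10 μM compound for 30 min and heated for 3 min across 48°C-58°C. Quantification used TMTpro 16plex LC-MS/MS with channel sums equalised, and values are log-two fold changes in thermal stability relative to solvent controls from duplicates.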

[1] = compound: CC(=O)c1cnc2ccc(-c3cc(Cl)c(O)c(Cl)c3)nc2c1N[C@H]1CC[C@H](CN(C)C)CC1
Method in brief: as §1

ralimetinib = compound: CC(C)(C)Cn1c(N)nc2ccc(-c3[nH]c(C(C)(C)C)nc3-c3ccc(F)cc3)nc21 [ralimetinib]
Method in brief: as §1

[2] = compound: CC(C)(O)CC(=O)NCCn1ccc2ncnc(Nc3ccc(Oc4cccc(C(F)(F)F)c4)c(Cl)c3)c21
Method in brief: as §1

[3] = compound: CC(C)C1=C2N=C(C=C(N2N=C1)NCC3=CC=CC=C3)NCCCCCCN
Method in brief: as §1

[4] = compound: CC1=C(C(CC(=O)N1)C2=CC=C(C=C2)C(F)(F)F)C(=O)NC3=C(C=C4C(=C3)C=NN4)F
Method in brief: as §1

[5] = compound: CC1=C(C2=C(C=C1)C(=O)C3=CC=CC=C3N2CCCN)C
Method in brief: as §1

[6] = compound: CC1=C(C=C(C=C1)NC(=O)C2=CC(=CC=C2)C(C)(C)C#N)NC3=CC4=C(C=C3)N=CN(C4=O)C
Method in brief: as §1

[7] = compound: CC1=C(C=C(C=C1)NC(=O)C2=CC(=CC=C2)N(C)C)NC(=O)C3=CC=C(C=C3)O
Method in brief: as §1

[8] = compound: CC1=CC=C(C=C1)SC2=C3C=C(SC3=CN=C2)C(=O)N
Method in brief: as §1

vemurafenib = compound: CCCS(=O)(=O)Nc1ccc(F)c(C(=O)c2c[nH]c3ncc(-c4ccc(Cl)cc4)cc23)c1F [vemurafenib]
Method in brief: as §1

[9] = compound: CCCS(=O)(=O)Nc1ccc(F)c(C(=O)c2c[nH]c3ncc(Cl)cc23)c1F
Method in brief: as §1

barasertib = compound: CCN(CCCOc1ccc2c(Nc3cc(CC(=O)Nc4cccc(F)c4)[nH]n3)ncnc2c1)CCOP(=O)(O)O [barasertib]
Method in brief: as §1

[10] = compound: CC[C@@H]1C(=O)N(C)c2cnc(Nc3ccc(C(=O)NC4CCN(C)CC4)cc3OC)nc2N1C1CCCC1
Method in brief: as §1

volasertib = compound: CC[C@@H]1C(=O)N(C)c2cnc(Nc3ccc(C(=O)N[C@H]4CC[C@H](N5CCN(CC6CC6)CC5)CC4)cc3OC)nc2N1C(C)C [volasertib]
Method in brief: as §1

[11] = compound: CCn1c(C(=O)N(C2CC2)C2CC2)cc2c3c(ncn3C)c(Nc3cc(C)n(C)n3)nc21
Method in brief: as §1

[12] = compound: CCn1cc(-c2ccnc3[nH]c(-c4cccc(CN(C)C)c4)cc23)c(-c2ccc(NC(=O)N(C)C)cc2)n1
Method in brief: as §1

[13] = compound: CN1CCC(CNc2ccc3ncc(-c4cccc(OC(F)(F)F)c4)n3n2)CC1
Method in brief: as §1

saracatinib = compound: CN1CCN(CCOc2cc(OC3CCOCC3)c3c(Nc4c(Cl)ccc5c4OCO5)ncnc3c2)CC1 [saracatinib]
Method in brief: as §1

sotrastaurin = compound: CN1CCN(c2nc(C3=C(c4c[nH]c5ccccc45)C(=O)NC3=O)c3ccccc3n2)CC1 [sotrastaurin]
Method in brief: as §1

Measured: log2 fold change

SNRPD3 (UniProt P62318)
inactive: ibrutinib -0.033 | [1] 0.035 | ralimetinib 0.067 | [2] -0.018 | [3] -0.05 | [4] 0.017 | [5] 0.019 | [6] -0.012 | [7] -0.004 | [8] -0.008 | vemurafenib 0.022 | [9] -0.012 | barasertib -0.006 | [10] -0.049 | volasertib -0.004 | [11] 0.052 | [12] -0.254 | [13] 0.135 | saracatinib 0.046 | sotrastaurin 0.024

SMC4 (UniProt Q9NTJ3)
inactive: ibrutinib -0.002 | [1] -0.005 | ralimetinib -0.015 | [2] -0.012 | [3] -0.009 | [4] -0.006 | [5] 0.002 | [6] -0.016 | [7] 0.023 | [8] 0.013 | vemurafenib 0.002 | [9] 0.001 | barasertib 0.022 | [10] -0.059 | volasertib -0.041 | [11] 0.006 | [12] 0.053 | [13] -0.118 | saracatinib 0.015 | sotrastaurin 0.012

SMTN isoform 6 (UniProt P53814)
inactive: ibrutinib -0.03 | [1] -0.072 | ralimetinib -0.02 | [2] -0.004 | [3] -0.009 | [4] 0.074 | [5] -0.013 | [6] 0.054 | [7] 0.05 | [8] 0.135 | vemurafenib 0.021 | [9] 0.061 | barasertib 0.018 | [10] -0.007 | volasertib -0.078 | [11] -0.026 | [12] -0.036 | [13] -0.006 | saracatinib 0.013 | sotrastaurin -0.051

SNRPC (UniProt P09234)
inactive: ibrutinib 0.013 | [1] -0.007 | ralimetinib -0.053 | [2] 0.006 | [3] 0.041 | [4] -0.041 | [5] 0.004 | [6] -0.017 | [7] 0.005 | [8] -0.008 | vemurafenib 0 | [9] -0.018 | barasertib 0.041 | [10] 0.097 | volasertib 0.069 | [11] 0.02 | [12] 0.011 | [13] -0.014 | saracatinib 0.004 | sotrastaurin 0.009

SPAG5 (UniProt Q96R06)
inactive: ibrutinib -0.005 | [1] 0.039 | ralimetinib -0.001 | [2] 0.017 | [3] -0.013 | [4] 0.03 | [5] -0.024 | [6] -0.024 | [7] 0.008 | [8] -0.005 | vemurafenib -0.007 | [9] 0.04 | barasertib 0.025 | [10] -0.016 | volasertib -0.004 | [11] -0.01 | [12] -0.004 | [13] -0.174 | saracatinib 0.004 | sotrastaurin 0.009

SNRK (UniProt Q9NRH2)
inactive: ibrutinib 0.057 | [1] 0.05 | ralimetinib 0.018 | [2] 0.057 | [3] 0.004 | [4] 0.105 | [5] -0.141 | [6] 0.024 | [7] 0.083 | [8] -0.007 | vemurafenib 0.187 | [9] -0.055 | barasertib 0.126 | [10] 0.053 | volasertib 0.035 | [11] 0.038 | [12] 0.042 | [13] -0.001 | saracatinib -0.192 | sotrastaurin 0.044

SMARCD2 (UniProt Q92925)
inactive: ibrutinib 0.026 | [1] 0.001 | ralimetinib 0.028 | [2] 0.048 | [3] -0.009 | [4] -0.007 | [5] -0.033 | [6] -0.033 | [7] -0.015 | [8] 0.026 | vemurafenib -0.006 | [9] 0.032 | barasertib -0.007 | [10] -0.077 | volasertib -0.03 | [11] 0.038 | [12] -0.107 | [13] 0.028 | saracatinib 0.005 | sotrastaurin 0.024

SNRPE (UniProt P62304)
inactive: ibrutinib 0.002 | [1] -0.009 | ralimetinib -0.041 | [2] -0.072 | [3] -0.019 | [4] 0.003 | [5] -0.034 | [6] 0.041 | [7] -0.023 | [8] 0 | vemurafenib 0.038 | [9] 0.022 | barasertib -0.079 | [10] 0.083 | volasertib 0.028 | [11] 0.032 | [12] -0.162 | [13] 0.055 | saracatinib 0.017 | sotrastaurin 0.017

SNX2 (UniProt O60749)
inactive: ibrutinib 0.037 | [1] 0.001 | ralimetinib 0.007 | [2] 0.048 | [3] -0.008 | [4] -0.008 | [5] 0.02 | [6] -0.036 | [7] 0.006 | [8] -0.013 | vemurafenib -0.021 | [9] -0.005 | barasertib 0.015 | [10] -0.023 | volasertib -0.029 | [11] 0.025 | [12] 0.001 | [13] -0.088 | saracatinib 0.009 | sotrastaurin -0.01

SOCS2 (UniProt O14508)
inactive: ibrutinib -0.051 | [1] -0.018 | ralimetinib -0.002 | [2] -0.042 | [3] -0.017 | [4] -0.059 | [5] 0.001 | [6] -0.012 | [7] 0.036 | [8] -0.049 | vemurafenib 0.005 | [9] -0.011 | barasertib 0 | [10] 0.031 | volasertib 0.021 | [11] -0.03 | [12] -0.032 | [13] 0.044 | saracatinib -0.022 | sotrastaurin 0.011

SNCA (UniProt P37840)
inactive: ibrutinib 0.102 | [1] -0.148 | ralimetinib 0.028 | [2] 0.02 | [3] 0.013 | [4] 0.036 | [5] -0.068 | [6] -0.042 | [7] -0.059 | [8] 0.028 | vemurafenib 0.042 | [9] -0.039 | barasertib -0.027 | [10] 0.08 | volasertib 0.072 | [11] -0.022 | [12] -0.109 | [13] 0.287 | saracatinib -0.035 | sotrastaurin 0.068

SNRPA1 (UniProt P09661)
inactive: ibrutinib 0.023 | [1] -0.003 | ralimetinib -0.001 | [2] 0.017 | [3] -0.013 | [4] -0.002 | [5] -0.017 | [6] -0.018 | [7] -0.011 | [8] 0.011 | vemurafenib 0.012 | [9] 0.008 | barasertib -0.005 | [10] 0.02 | volasertib 0.015 | [11] -0.007 | [12] -0.029 | [13] 0.019 | saracatinib 0.023 | sotrastaurin -0.01

SNRPB2 (UniProt P08579)
inactive: ibrutinib 0.016 | [1] -0.023 | ralimetinib -0.046 | [2] 0.003 | [3] 0.007 | [4] -0.029 | [5] -0.016 | [6] 0.002 | [7] -0.027 | [8] -0.021 | vemurafenib -0.029 | [9] 0.006 | barasertib 0.016 | [10] 0.02 | volasertib 0.009 | [11] -0.018 | [12] 0.014 | [13] 0 | saracatinib 0.005 | sotrastaurin 0.034

2 records picked at random from those above, as already listed:
SNRK (UniProt Q9NRH2)
inactive: ibrutinib 0.057 | [1] 0.05 | ralimetinib 0.018 | [2] 0.057 | [3] 0.004 | [4] 0.105 | [5] -0.141 | [6] 0.024 | [7] 0.083 | [8] -0.007 | vemurafenib 0.187 | [9] -0.055 | barasertib 0.126 | [10] 0.053 | volasertib 0.035 | [11] 0.038 | [12] 0.042 | [13] -0.001 | saracatinib -0.192 | sotrastaurin 0.044

SMARCD2 (UniProt Q92925)
inactive: ibrutinib 0.026 | [1] 0.001 | ralimetinib 0.028 | [2] 0.048 | [3] -0.009 | [4] -0.007 | [5] -0.033 | [6] -0.033 | [7] -0.015 | [8] 0.026 | vemurafenib -0.006 | [9] 0.032 | barasertib -0.007 | [10] -0.077 | volasertib -0.03 | [11] 0.038 | [12] -0.107 | [13] 0.028 | saracatinib 0.005 | sotrastaurin 0.024

Next part

SNAP29 (UniProt O95721)
inactive: ibrutinib 0.044 | [1] 0.013 | ralimetinib 0.003 | [2] -0.018 | [3] 0.029 | [4] -0.011 | [5] 0.003 | [6] 0.052 | [7] -0.019 | [8] -0.027 | vemurafenib -0.014 | [9] 0 | barasertib -0.015 | [10] 0.041 | volasertib 0.019 | [11] -0.032 | [12] -0.014 | [13] 0.046 | saracatinib -0.015 | sotrastaurin 0.004

SMG8 isoform 2 (UniProt Q8ND04)
inactive: ibrutinib 0.01 | [1] -0.018 | ralimetinib 0.038 | [2] -0.046 | [3] 0.02 | [4] -0.024 | [5] 0.013 | [6] -0.044 | [7] -0.053 | [8] 0.046 | vemurafenib 0.032 | [9] 0.047 | barasertib -0.045 | [10] -0.013 | volasertib -0.033 | [11] 0.02 | [12] 0.096 | [13] -0.09 | saracatinib 0.056 | sotrastaurin -0.03

SP100 isoform 4 (UniProt P23497)
inactive: ibrutinib 0 | [1] 0.003 | ralimetinib 0.055 | [2] 0.038 | [3] -0.017 | [4] -0.024 | [5] -0.003 | [6] -0.016 | [7] -0.008 | [8] -0.015 | vemurafenib 0.015 | [9] -0.014 | barasertib -0.044 | [10] 0.035 | volasertib 0.004 | [11] 0.018 | [12] -0.001 | [13] -0.002 | saracatinib -0.011 | sotrastaurin 0.017
